In the supplement of paper PMC10849652:
The list shows a part of the results.

Protein sequences, listed by entry. Tags and fused reporters are not part of them. Lines headed by an entry give the natural chain unless they say otherwise; changes in a name come on top.
UniProt P50570: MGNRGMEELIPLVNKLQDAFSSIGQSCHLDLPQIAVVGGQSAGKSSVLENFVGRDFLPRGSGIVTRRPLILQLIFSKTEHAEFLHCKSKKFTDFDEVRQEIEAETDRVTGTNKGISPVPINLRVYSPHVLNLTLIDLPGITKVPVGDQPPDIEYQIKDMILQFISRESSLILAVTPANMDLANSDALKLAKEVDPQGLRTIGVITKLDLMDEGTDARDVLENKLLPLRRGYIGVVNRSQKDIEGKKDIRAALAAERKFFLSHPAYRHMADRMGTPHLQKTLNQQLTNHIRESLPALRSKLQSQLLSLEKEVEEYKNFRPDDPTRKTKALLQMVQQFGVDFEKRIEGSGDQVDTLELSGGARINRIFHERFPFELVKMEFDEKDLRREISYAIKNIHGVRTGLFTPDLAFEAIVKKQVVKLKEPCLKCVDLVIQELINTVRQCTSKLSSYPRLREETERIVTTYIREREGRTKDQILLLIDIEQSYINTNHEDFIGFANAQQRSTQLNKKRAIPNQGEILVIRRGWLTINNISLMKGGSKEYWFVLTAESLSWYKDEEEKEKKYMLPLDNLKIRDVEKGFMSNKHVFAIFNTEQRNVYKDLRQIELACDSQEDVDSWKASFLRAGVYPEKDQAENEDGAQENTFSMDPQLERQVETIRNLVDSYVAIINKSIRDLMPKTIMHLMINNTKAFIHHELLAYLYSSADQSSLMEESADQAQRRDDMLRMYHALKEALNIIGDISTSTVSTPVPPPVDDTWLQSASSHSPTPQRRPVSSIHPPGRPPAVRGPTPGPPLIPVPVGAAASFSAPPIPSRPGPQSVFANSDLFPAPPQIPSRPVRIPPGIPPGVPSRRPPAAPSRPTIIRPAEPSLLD
UniProt Q9NYP3: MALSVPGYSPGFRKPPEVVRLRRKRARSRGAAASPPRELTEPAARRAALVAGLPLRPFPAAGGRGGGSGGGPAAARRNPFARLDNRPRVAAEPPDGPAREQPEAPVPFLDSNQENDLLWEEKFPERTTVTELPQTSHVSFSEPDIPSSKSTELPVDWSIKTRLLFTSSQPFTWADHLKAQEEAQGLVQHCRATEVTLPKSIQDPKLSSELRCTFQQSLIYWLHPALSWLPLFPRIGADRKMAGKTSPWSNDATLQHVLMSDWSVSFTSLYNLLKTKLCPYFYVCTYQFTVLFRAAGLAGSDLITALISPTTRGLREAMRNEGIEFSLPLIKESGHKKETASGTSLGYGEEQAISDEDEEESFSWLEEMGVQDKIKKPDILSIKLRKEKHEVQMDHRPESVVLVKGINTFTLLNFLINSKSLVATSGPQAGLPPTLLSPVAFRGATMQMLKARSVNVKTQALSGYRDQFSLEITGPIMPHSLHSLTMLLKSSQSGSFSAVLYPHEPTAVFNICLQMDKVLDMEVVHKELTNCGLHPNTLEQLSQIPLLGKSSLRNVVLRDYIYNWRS
UniProt P25686: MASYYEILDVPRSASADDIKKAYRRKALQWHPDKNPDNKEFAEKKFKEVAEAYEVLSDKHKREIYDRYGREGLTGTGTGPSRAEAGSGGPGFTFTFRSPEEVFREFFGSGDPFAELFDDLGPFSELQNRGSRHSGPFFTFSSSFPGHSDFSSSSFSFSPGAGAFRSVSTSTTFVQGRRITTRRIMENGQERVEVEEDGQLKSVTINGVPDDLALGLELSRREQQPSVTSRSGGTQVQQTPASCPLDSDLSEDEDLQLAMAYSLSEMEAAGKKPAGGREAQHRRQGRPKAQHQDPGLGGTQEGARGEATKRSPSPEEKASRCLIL
UniProt Q8NF50: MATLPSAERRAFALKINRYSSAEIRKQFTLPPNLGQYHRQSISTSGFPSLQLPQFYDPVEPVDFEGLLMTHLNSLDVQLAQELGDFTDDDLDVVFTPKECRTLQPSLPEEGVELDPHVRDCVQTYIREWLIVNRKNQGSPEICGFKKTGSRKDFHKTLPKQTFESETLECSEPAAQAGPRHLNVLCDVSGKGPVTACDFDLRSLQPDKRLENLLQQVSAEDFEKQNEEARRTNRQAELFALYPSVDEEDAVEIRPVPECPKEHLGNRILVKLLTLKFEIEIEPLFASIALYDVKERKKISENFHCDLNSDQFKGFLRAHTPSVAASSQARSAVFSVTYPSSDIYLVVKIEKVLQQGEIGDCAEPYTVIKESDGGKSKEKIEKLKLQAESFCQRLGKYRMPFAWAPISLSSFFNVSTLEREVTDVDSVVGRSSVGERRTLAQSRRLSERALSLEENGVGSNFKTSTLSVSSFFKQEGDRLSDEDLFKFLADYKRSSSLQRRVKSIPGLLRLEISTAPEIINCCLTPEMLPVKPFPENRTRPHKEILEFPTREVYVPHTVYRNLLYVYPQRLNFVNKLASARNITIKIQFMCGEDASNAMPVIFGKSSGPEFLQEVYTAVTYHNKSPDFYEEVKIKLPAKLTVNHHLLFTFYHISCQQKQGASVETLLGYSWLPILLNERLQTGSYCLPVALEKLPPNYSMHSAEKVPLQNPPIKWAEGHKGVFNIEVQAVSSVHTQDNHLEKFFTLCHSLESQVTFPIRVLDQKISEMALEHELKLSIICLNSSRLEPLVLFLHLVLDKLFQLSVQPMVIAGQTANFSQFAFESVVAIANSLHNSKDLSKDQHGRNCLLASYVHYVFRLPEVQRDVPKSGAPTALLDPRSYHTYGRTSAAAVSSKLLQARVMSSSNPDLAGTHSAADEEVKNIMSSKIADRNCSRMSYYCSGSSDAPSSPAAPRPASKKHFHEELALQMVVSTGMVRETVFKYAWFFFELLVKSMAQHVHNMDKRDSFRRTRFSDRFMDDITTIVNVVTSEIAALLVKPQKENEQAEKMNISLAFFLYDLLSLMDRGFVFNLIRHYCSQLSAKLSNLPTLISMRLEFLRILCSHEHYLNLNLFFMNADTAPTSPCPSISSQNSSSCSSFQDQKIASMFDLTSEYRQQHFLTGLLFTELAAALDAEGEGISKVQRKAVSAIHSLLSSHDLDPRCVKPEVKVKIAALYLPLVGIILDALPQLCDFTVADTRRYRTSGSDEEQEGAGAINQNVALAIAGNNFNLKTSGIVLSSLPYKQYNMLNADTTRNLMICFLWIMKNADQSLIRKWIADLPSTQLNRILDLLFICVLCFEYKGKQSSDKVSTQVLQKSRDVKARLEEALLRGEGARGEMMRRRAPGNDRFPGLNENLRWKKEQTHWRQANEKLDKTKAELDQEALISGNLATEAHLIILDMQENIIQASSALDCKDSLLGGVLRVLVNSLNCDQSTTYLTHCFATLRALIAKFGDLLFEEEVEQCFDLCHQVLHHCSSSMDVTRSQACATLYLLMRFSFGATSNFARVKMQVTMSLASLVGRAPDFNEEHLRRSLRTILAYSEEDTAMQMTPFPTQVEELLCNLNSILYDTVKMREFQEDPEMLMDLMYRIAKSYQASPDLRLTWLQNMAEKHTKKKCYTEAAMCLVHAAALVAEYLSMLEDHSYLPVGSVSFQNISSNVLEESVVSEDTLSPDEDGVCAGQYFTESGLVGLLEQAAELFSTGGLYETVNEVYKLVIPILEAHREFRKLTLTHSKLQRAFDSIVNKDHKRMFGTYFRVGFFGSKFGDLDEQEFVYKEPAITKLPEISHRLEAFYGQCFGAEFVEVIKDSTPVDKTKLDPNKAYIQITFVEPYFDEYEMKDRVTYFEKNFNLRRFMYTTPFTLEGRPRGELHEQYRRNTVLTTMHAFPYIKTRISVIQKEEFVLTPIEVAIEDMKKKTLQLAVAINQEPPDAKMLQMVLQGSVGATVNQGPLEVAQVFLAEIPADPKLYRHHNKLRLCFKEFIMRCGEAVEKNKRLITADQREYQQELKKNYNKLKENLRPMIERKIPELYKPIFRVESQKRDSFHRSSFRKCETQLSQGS
UniProt O43237, whole entry, looked up: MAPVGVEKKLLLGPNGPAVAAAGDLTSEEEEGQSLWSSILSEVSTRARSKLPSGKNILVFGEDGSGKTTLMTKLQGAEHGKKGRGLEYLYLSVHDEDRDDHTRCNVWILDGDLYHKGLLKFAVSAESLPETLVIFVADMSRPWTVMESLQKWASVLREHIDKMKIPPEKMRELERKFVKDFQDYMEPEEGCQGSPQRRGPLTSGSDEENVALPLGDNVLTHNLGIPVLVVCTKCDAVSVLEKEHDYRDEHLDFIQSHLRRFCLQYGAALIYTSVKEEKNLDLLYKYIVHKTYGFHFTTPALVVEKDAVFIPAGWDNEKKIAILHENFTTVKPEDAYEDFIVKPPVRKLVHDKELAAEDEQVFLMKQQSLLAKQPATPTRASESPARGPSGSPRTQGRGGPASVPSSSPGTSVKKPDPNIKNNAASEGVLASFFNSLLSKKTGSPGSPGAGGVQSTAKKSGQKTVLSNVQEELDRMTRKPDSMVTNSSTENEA
UniProt Q56P03: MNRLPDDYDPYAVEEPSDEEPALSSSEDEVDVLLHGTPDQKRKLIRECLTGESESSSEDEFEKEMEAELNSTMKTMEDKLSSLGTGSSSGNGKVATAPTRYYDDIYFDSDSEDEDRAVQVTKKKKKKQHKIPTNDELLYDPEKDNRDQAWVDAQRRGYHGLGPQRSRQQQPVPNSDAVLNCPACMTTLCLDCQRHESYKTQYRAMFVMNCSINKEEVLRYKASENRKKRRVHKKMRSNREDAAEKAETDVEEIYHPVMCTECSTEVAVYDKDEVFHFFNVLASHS
UniProt Q6NUT2: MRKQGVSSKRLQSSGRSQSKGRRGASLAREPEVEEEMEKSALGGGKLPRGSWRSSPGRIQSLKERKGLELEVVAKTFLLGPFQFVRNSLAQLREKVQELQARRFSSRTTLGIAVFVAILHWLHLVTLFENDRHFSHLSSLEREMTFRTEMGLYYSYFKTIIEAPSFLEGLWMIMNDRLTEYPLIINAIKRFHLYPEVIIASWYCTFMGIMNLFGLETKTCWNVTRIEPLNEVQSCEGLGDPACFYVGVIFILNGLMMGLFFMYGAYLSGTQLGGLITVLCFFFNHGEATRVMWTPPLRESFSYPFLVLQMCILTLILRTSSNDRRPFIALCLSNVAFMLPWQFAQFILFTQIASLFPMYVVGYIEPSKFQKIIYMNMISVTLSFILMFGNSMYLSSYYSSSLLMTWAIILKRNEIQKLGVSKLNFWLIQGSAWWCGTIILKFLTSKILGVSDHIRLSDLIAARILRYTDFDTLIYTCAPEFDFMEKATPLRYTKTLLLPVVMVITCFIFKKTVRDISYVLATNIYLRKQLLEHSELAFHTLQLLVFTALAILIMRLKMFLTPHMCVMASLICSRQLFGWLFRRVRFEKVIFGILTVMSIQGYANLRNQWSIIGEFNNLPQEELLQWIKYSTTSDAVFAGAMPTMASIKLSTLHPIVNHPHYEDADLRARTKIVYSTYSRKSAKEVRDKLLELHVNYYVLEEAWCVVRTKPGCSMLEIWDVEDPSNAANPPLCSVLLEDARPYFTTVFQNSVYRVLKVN
UniProt O00716: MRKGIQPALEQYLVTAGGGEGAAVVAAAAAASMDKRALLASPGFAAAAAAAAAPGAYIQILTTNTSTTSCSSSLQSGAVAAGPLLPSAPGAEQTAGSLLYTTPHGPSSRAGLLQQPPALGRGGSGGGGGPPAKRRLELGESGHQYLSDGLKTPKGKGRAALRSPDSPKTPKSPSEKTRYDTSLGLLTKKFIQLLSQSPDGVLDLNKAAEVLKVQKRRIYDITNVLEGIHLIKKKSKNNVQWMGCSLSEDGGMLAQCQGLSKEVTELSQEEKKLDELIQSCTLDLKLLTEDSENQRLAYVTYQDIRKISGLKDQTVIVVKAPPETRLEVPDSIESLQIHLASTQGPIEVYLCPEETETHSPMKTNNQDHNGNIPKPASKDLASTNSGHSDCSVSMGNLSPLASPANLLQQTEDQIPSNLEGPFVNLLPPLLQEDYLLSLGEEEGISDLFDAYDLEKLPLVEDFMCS
UniProt Q13409, whole entry, looked up: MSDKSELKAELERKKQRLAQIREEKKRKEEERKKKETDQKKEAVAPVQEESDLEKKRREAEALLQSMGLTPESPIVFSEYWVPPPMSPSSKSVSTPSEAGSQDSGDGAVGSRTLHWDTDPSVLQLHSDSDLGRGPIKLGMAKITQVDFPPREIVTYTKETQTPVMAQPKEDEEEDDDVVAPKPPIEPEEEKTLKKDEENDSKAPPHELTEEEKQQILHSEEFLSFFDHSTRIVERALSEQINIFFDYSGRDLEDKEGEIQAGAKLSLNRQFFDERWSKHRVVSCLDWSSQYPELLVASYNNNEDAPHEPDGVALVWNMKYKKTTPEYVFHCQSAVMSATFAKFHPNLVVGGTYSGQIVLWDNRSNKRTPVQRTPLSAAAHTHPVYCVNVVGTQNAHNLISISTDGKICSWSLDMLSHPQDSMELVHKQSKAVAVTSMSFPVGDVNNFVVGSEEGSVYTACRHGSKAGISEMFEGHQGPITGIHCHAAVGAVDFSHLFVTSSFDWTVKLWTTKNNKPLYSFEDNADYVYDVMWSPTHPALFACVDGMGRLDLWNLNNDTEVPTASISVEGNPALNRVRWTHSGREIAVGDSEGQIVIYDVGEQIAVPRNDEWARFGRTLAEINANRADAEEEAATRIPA

Tests used:
Assay in all cases: log2 fold change, soluble protein after heating vs DMSO (PISA); higher = thermal stabilisation; K562 cells, 10 uM, 30 min; active = over 0.2 and 3.5 SD of the protein, either way, in both replicates (recomputed)
[1] = compound: CC[C@@H]1C(=O)N(C)c2cnc(Nc3ccc(C(=O)NC4CCN(C)CC4)cc3OC)nc2N1C1CCCC1
In short: (§1)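 K562 cells at 2×10^6 cells/mL were given 10 μM compound for 30 min. Aliquots then went through 3 min of heating across 48°C-58°C, were pooled, and were extracted in PBS with 0.5% NP-40 at 4°C, and the supernatant after 21,000xg for 90 min was quantified by TMTpro 16plex LC-MS/MS with channel sums equalised. Thermal stability relative to control samples, from duplicates, is given as log2 fold change.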

volasertib = compound: CC[C@@H]1C(=O)N(C)c2cnc(Nc3ccc(C(=O)N[C@H]4CC[C@H](N5CCN(CC6CC6)CC5)CC4)cc3OC)nc2N1C(C)C [volasertib]
In short: as §1

[2] = compound: CC[C@H](C)N1C=C(C2=C(C=C(C=C21)C3=CN=C(C=C3)N4CCNCC4)C(=O)NCC5=C(C=C(NC5=O)C)C)C
In short: as §1

epoxomicin = compound: CC[C@H](C)[C@@H](C(=O)N[C@@H]([C@@H](C)O)C(=O)N[C@@H](CC(C)C)C(=O)[C@]1(CO1)C)NC(=O)[C@H]([C@@H](C)CC)N(C)C(=O)C [epoxomicin]
In short: as §1

[3] = compound: CCn1cc(-c2ccnc3[nH]c(-c4cccc(CN(C)C)c4)cc23)c(-c2ccc(NC(=O)N(C)C)cc2)n1
In short: as §1

[4] = compound: CN(C)CC(=O)Nc1ccc2[nH]c(=O)c3ccccc3c2c1
In short: as §1

[5] = compound: CN1C2=C(C3=C1C(=O)N(N=C3)CC4=CC(=CC=C4)N)SC(=C2)S(=O)C
In short: as §1

[6] = compound: CN1CCC(CNc2ccc3ncc(-c4cccc(OC(F)(F)F)c4)n3n2)CC1
In short: as §1

saracatinib = compound: CN1CCN(CCOc2cc(OC3CCOCC3)c3c(Nc4c(Cl)ccc5c4OCO5)ncnc3c2)CC1 [saracatinib]
In short: as §1

sotrastaurin = compound: CN1CCN(c2nc(C3=C(c4c[nH]c5ccccc45)C(=O)NC3=O)c3ccccc3n2)CC1 [sotrastaurin]
In short: as §1

Tubastatin A = compound: CN1CCc2c(c3ccccc3n2Cc2ccc(C(=O)NO)cc2)C1 [Tubastatin A]
In short: as §1

[7] = compound: CNC(=O)C1=CC=CC=C1NC2=NC(=NC=C2Cl)NC3=C(C=C(C=C3)N4CCOCC4)OC
In short: as §1

defactinib = compound: CNC(=O)c1ccc(Nc2ncc(C(F)(F)F)c(NCc3nccnc3N(C)S(C)(=O)=O)n2)cc1 [defactinib]
In short: as §1

rucaparib = compound: CNCc1ccc(-c2[nH]c3cc(F)cc4c3c2CCNC4=O)cc1 [rucaparib]
In short: as §1

[8] = compound: CNc1nc(-c2ccc3c(N)n[nH]c3c2)cc(N2C[C@@H](C(=O)NC3CCCCC3)CC[C@H]2C)n1
In short: as §1

encorafenib = compound: COC(=O)N[C@@H](C)CNc1nccc(-c2cn(C(C)C)nc2-c2cc(Cl)cc(NS(C)(=O)=O)c2F)n1 [encorafenib]
In short: as §1

[9] = compound: COC(=O)[C@H](CCSC)NC(=O)C1=C(C=C(C=C1)NC[C@H](CS)N)C2=CC=CC=C2
In short: as §1

alvocidib = compound: CN1CC[C@H](c2c(O)cc(O)c3c(=O)cc(-c4ccccc4Cl)oc23)[C@H](O)C1 [alvocidib]
In short: as §1

[10] = compound: CCn1c(C(=O)N(C2CC2)C2CC2)cc2c3c(ncn3C)c(Nc3cc(C)n(C)n3)nc21
In short: as §1

rosiglitazone = compound: CN(CCOC1=CC=C(C=C1)C[C@H]2C(=O)NC(=O)S2)C3=CC=CC=N3 (racemic) [rosiglitazone]
In short: as §1

Measured: log2 fold change

DNM2 (UniProt P50570)
active: [6] -0.349
inactive: [1] -0.013 | volasertib -0.015 | [2] 0.043 | epoxomicin 0.029 | [3] -0.091 | [4] 0.037 | [5] -0.044 | saracatinib -0.028 | sotrastaurin 0.043 | Tubastatin A 0 | [7] -0.027 | defactinib -0.02 | rucaparib 0.035 | [8] 0.029 | encorafenib 0.009 | [9] -0.03

DONSON (UniProt Q9NYP3)
inactive: [1] 0.078 | [2] 0.067 | epoxomicin -0.085 | [3] -0.065 | [4] 0.038 | [5] -0.206 | [6] -0.176 | saracatinib -0.164 | sotrastaurin -0.113 | alvocidib 0.008 | Tubastatin A 0.166 | defactinib 0.076 | rucaparib 0.308 | [8] 0.094 | encorafenib 0.145 | [9] -0.02

DNAJB2 (UniProt P25686)
inactive: [1] 0.011 | volasertib 0.151 | epoxomicin 0.032 | [3] 0.135 | [5] 0.042 | [6] -0.179 | saracatinib 0.042 | rucaparib 0.018 | [8] -0.083 | encorafenib 0.112

Fetched one by one from the entries so far, 2 records:
DNM2 (UniProt P50570)
active: [6] -0.349
inactive: [1] -0.013 | volasertib -0.015 | [2] 0.043 | epoxomicin 0.029 | [3] -0.091 | [4] 0.037 | [5] -0.044 | saracatinib -0.028 | sotrastaurin 0.043 | Tubastatin A 0 | [7] -0.027 | defactinib -0.02 | rucaparib 0.035 | [8] 0.029 | encorafenib 0.009 | [9] -0.03

DNAJB2 (UniProt P25686)
inactive: [1] 0.011 | volasertib 0.151 | epoxomicin 0.032 | [3] 0.135 | [5] 0.042 | [6] -0.179 | saracatinib 0.042 | rucaparib 0.018 | [8] -0.083 | encorafenib 0.112

(next part)

DNM2 isoform 4 (UniProt P50570)
inactive: [1] 0.026 | [2] -0.125 | epoxomicin 0.241 | [3] -0.01 | [5] 0.027 | [6] -0.252 | saracatinib -0.126 | sotrastaurin -0.024 | [7] -0.088 | rucaparib -0.268 | [8] -0.235 | encorafenib 0.107

DOCK8 (UniProt Q8NF50)
inactive: [1] 0.01 | [2] 0.004 | epoxomicin 0.119 | [3] -0.094 | [4] -0.009 | [5] 0.258 | [6] 0.137 | saracatinib -0.241 | sotrastaurin -0.398 | Tubastatin A 0.166 | [7] -0.163 | defactinib 0.242 | rucaparib 0.044 | [8] -0.06 | encorafenib -0.079 | [9] -0.154

DYNC1LI2 (UniProt O43237)
inactive: [1] 0.324 | volasertib -0.021 | [2] -0.181 | epoxomicin -0.072 | [3] -0.041 | [4] 0.024 | [5] -0.007 | [6] 0.101 | saracatinib -0.001 | sotrastaurin -0.079 | Tubastatin A 0.033 | [7] 0.028 | defactinib -0.039 | rucaparib 0.42 | [8] 0.003 | encorafenib 0.212 | [9] 0.016

EAPP (UniProt Q56P03)
inactive: [1] 0 | volasertib -0.051 | [2] -0.005 | [10] -0.12 | [3] 0.005 | [4] -0.012 | [5] -0.022 | [6] 0.2 | saracatinib 0.03 | sotrastaurin 0.086 | alvocidib -0.05 | Tubastatin A -0.003 | [7] 0.031 | defactinib -0.241 | rucaparib 0.184 | [8] -0.04 | encorafenib -0.082 | [9] 0.073

DPY19L2 (UniProt Q6NUT2)
inactive: [1] 0.074 | [2] -0.136 | [3] 0.003 | [4] 0.039 | rosiglitazone -0.005 | [6] 0.015 | Tubastatin A -0.049 | defactinib 0.056 | rucaparib -0.132 | encorafenib 0.054 | [9] -0.007

E2F3 (UniProt O00716)
inactive: [1] 0.079 | [2] 0.029 | epoxomicin 0.098 | [10] -0.123 | [3] 0.039 | [4] 0.07 | rosiglitazone -0.016 | [6] -0.223 | sotrastaurin -0.06 | alvocidib -0.04 | Tubastatin A 0.02 | [7] 0.092 | defactinib -0.024 | rucaparib -0.05 | encorafenib 0.043 | [9] 0.087

DYNC1I2 isoform 2 (UniProt Q13409)
inactive: [1] 0.012 | volasertib 0.045 | epoxomicin -0.06 | sotrastaurin 0.062 | Tubastatin A -0.028 | [7] -0.021 | rucaparib -0.034 | encorafenib -0.108

DYNC1I2 isoform 5 (UniProt Q13409)
inactive: [1] 0.004 | volasertib 0.005 | [2] 0.004 | epoxomicin 0.026 | [3] -0.003 | [4] 0.002 | [5] -0.041 | [6] -0.035 | saracatinib 0.012 | sotrastaurin 0.021 | Tubastatin A 0.003 | [7] 0.012 | defactinib 0.001 | rucaparib -0.006 | [8] -0.005 | encorafenib -0.014 | [9] 0.028
